Consider two substances from publication PMC12639660.

Chains of the proteins cited; added tags and fusions are not shown.
UniProt P78527: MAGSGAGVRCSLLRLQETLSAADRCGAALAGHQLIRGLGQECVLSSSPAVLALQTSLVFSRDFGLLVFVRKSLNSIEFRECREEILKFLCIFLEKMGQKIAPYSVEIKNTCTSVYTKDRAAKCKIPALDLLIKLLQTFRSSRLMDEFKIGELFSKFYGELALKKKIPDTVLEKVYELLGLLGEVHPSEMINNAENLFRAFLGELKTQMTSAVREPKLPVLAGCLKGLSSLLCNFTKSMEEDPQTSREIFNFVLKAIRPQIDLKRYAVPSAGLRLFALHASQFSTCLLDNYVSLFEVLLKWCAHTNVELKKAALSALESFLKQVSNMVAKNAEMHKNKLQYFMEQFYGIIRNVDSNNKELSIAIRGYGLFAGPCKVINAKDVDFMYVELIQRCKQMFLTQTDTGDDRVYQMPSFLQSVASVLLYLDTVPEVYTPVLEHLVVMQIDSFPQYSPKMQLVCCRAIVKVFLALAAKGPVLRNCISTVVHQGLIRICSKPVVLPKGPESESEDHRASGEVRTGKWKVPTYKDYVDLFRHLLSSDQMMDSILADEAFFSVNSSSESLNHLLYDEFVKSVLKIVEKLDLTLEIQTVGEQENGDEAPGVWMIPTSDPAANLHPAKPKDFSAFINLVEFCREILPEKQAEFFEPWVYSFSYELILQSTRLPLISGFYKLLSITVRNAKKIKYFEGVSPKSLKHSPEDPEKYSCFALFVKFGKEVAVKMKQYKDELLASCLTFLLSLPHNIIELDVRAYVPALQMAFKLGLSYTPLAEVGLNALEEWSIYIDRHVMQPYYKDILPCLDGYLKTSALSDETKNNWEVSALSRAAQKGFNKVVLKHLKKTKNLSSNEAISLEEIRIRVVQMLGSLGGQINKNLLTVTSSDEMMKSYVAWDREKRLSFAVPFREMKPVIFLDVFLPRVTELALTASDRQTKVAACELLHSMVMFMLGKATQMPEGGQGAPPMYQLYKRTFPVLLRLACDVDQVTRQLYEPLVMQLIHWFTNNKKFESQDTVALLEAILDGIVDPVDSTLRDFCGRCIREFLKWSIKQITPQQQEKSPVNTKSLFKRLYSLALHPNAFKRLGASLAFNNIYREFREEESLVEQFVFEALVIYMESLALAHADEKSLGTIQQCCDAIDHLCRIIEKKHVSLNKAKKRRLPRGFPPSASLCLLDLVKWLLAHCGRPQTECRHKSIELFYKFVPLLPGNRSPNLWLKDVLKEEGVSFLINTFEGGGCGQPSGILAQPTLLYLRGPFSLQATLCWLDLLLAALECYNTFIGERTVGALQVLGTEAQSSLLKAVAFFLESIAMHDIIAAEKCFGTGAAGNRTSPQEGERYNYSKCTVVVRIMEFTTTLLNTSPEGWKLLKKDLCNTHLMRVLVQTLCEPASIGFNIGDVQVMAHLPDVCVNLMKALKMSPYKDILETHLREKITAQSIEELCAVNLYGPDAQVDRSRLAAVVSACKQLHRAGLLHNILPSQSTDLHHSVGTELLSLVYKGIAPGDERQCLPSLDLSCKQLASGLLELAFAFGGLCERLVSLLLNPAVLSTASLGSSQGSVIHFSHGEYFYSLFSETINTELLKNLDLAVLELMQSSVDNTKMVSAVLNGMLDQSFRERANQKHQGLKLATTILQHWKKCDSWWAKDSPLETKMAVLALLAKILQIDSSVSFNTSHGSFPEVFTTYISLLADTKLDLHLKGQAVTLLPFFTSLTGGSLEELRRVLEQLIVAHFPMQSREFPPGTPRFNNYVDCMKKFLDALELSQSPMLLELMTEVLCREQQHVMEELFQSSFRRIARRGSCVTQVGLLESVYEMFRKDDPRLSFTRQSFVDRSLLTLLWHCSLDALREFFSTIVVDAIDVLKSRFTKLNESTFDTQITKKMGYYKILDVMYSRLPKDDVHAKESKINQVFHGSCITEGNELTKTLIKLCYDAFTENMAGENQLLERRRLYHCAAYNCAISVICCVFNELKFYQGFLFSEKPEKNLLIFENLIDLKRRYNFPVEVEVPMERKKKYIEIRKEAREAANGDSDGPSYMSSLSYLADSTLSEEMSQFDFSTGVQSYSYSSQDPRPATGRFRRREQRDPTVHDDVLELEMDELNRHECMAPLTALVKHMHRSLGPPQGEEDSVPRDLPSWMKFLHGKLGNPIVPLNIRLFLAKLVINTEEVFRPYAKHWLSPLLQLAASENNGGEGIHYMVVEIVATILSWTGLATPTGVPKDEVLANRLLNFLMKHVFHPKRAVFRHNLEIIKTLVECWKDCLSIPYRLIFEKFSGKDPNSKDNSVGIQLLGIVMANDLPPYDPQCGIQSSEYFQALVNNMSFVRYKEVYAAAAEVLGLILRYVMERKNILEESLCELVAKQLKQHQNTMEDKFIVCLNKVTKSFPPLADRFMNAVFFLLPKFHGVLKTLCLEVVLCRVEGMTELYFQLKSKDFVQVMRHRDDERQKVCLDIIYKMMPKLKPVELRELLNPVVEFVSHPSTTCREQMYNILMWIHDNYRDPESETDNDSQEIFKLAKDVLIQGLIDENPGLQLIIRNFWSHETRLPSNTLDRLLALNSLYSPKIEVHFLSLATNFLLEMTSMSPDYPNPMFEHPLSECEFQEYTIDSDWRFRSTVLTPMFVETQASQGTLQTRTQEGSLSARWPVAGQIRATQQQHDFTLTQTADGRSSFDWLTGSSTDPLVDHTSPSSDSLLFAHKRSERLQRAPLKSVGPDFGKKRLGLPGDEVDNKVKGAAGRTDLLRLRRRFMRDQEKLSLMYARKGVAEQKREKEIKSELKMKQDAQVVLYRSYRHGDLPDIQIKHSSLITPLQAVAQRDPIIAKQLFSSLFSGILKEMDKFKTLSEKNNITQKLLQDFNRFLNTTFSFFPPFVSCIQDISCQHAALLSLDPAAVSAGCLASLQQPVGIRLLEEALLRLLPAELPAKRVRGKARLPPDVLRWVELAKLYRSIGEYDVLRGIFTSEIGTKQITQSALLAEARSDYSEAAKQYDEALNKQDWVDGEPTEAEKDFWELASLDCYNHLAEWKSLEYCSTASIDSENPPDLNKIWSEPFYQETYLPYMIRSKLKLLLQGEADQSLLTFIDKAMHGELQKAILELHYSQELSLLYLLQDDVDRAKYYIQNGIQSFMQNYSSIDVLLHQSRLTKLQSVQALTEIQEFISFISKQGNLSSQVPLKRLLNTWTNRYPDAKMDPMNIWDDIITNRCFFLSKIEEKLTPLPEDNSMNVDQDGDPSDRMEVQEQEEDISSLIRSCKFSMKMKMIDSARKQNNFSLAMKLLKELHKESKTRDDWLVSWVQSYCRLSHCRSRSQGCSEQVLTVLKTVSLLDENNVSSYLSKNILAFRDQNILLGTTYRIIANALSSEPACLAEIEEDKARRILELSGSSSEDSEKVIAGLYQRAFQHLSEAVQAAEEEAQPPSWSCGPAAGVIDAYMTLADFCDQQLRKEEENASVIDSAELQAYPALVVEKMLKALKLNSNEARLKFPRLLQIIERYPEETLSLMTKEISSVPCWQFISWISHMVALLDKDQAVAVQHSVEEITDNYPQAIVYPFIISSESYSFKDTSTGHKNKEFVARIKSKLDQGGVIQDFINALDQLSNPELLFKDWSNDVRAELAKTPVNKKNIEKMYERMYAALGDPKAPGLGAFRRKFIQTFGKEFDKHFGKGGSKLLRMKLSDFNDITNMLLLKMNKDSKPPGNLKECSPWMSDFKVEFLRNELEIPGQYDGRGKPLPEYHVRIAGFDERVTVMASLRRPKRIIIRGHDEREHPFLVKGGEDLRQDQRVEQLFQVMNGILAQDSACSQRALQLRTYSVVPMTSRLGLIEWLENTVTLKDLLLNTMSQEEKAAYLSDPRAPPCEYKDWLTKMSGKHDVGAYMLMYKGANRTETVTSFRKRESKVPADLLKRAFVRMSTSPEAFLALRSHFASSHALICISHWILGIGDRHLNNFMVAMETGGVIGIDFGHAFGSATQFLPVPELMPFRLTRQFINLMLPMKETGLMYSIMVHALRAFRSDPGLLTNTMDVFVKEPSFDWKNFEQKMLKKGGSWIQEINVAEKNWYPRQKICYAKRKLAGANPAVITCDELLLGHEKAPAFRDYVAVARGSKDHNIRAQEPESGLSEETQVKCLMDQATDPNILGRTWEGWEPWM
UniProt Q09472: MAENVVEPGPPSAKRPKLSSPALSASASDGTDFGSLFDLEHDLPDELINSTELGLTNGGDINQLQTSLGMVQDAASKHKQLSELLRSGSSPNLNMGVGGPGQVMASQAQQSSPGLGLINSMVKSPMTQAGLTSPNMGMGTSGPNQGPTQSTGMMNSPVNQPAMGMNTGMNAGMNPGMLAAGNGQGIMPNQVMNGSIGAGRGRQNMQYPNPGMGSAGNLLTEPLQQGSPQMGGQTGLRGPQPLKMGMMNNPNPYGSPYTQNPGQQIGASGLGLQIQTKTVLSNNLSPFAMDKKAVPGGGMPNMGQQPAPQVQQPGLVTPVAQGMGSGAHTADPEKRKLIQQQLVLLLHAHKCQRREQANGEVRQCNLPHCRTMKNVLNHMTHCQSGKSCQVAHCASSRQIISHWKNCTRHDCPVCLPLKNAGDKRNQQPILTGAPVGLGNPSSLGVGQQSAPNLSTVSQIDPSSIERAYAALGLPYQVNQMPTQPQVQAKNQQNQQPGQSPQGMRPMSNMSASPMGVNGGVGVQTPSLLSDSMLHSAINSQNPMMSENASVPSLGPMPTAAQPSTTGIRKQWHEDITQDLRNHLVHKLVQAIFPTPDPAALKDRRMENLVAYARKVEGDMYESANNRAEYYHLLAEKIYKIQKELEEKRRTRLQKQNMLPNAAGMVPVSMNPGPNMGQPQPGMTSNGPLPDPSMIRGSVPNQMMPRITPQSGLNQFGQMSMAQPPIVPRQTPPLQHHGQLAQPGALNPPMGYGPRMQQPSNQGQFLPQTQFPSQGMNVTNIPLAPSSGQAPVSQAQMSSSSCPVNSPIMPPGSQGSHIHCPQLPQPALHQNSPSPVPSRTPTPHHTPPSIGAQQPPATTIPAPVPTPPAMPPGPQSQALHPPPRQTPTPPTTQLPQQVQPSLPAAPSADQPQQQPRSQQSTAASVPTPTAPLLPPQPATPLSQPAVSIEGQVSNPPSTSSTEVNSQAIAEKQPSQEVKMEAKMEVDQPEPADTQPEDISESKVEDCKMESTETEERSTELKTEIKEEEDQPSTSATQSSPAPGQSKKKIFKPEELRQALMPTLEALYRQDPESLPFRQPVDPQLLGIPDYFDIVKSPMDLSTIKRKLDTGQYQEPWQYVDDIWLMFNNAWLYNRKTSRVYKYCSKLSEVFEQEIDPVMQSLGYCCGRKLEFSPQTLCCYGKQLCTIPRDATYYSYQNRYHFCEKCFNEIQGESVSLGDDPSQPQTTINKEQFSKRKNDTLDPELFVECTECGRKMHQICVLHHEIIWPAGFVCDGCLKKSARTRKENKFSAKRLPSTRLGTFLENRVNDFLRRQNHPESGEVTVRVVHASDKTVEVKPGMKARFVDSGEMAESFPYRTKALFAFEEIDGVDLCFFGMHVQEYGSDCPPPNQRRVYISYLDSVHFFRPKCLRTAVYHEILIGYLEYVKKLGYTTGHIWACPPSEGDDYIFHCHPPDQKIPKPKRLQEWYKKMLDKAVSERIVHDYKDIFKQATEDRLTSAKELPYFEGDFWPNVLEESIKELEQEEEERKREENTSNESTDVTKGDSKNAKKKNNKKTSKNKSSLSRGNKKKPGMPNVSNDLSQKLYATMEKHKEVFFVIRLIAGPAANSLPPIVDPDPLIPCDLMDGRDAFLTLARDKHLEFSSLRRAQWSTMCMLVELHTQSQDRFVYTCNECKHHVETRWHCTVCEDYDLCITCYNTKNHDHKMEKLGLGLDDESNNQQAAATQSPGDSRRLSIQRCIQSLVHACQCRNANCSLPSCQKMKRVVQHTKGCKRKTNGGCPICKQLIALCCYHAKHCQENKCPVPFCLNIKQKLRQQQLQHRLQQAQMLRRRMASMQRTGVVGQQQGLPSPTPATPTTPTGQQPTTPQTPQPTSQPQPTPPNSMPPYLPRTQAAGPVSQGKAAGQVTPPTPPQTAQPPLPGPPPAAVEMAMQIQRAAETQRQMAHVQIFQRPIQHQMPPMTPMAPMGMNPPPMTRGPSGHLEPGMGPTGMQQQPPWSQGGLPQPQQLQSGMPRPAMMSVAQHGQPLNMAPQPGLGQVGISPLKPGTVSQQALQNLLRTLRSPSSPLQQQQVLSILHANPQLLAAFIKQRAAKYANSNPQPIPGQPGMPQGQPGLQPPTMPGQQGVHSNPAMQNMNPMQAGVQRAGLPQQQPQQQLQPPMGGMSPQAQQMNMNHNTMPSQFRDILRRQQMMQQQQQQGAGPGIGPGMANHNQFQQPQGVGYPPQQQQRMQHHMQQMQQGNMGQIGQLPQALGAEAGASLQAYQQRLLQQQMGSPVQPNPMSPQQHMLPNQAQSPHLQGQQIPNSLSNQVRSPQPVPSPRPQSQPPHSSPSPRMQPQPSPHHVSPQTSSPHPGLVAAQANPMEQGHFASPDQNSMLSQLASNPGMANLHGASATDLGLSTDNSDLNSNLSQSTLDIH

The target of assay [1] is NF-κB p65 (endogenous) (human (endogenous in A549 and A549/DR)) (UniProt Q04206). Description: co-IP; A549/DR cell lysate (NP-40 lysis buffer); precleared with protein A agarose, 5 µg anti-p65 antibody or normal rabbit IgG overnight at 4 °C, four washes, Western blot.
The target is the same in assay [2]. The assay can be described thus: condition: only in parental A549 cells (not DDP-resistant); co-IP; parental (DDP-sensitive) A549 cell lysate; anti-p65 antibody or normal rabbit IgG overnight at 4 °C, Western blot.

No constants are given. Whether binding was seen depends on the method and setting. In cells and extracts the contact can be indirect. Some results given as binding are weak or reduced against the parent protein; the word gives no strength.

For the substance “DNA-dependent protein kinase catalytic subunit (endogenous) (from UniProt P78527 1-4128) (enzyme)”, the binding result in assay [1] is recorded as “binds”. Take “p300 histone acetyltransferase (endogenous) (from UniProt Q09472 1-2414) (enzyme)”: the binding entry in assay [2] is “no binding”.
